Paper PMC12646010
These are yes or no findings as the source states them, for the method shown. In cells and extracts the contact can be indirect. Where a sequence is shown, tags or fusion partners need not be part of it.

Amino acid sequences for entries named in this document (tags omitted).
UniProt P49715: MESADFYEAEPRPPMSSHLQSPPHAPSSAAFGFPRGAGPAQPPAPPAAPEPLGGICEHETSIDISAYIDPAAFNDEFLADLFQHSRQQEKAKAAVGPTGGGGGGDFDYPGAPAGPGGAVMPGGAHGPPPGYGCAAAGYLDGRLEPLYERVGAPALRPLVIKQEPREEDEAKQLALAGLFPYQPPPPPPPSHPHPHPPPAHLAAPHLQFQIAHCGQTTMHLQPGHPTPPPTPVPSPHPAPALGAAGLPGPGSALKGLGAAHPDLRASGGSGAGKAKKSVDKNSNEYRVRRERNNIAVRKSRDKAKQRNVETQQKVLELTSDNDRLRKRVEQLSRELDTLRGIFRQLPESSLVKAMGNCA

Target: Myc-tagged C/EBPα (CCAAT-enhancer-binding protein alpha) (UniProt P49715)
Assay: co-IP; HepG2 cells co-transfected with Myc-C/EBPα plus FLAG-IFI27 or control vector for 48 h, then DMSO or 5 µM MG132 for 24 h; whole-cell lysates (1% NP-40, 10% glycerol, 2 mM EDTA, 50 mM Tris-HCl pH 7.0, 150 mM NaCl) immunoprecipitated with anti-Myc-tag antibody (legend; methods name anti-C/EBPα antibody), protein A/G beads, 4°C; Western blot for ubiquitin, Myc-tag and FLAG-tag

B1: Interferon alpha-inducible protein 27 (IFI27), N-terminally FLAG-tagged (protein, UniProt P40305 34-122)
chain: ATVVIGGVVAMAAVPMVLSAMGFTAAGIASSSIAAKMMSAAAIANGGGVASGSLVATLQSLGATGLSGLTKFILGSIGSAIAAVIARFY
binding: no binding
